Measured values as given in PMC5764391.
These are yes or no findings as the source states them, for the method shown. In cells and extracts the contact can be indirect. Some results given as binding are weak or reduced against the parent protein; the word gives no strength. Tags and fused reporters may be left off the sequences shown.

Protein sequences, listed by entry. Tags and fused reporters are not part of them.
UniProt Q96SD1: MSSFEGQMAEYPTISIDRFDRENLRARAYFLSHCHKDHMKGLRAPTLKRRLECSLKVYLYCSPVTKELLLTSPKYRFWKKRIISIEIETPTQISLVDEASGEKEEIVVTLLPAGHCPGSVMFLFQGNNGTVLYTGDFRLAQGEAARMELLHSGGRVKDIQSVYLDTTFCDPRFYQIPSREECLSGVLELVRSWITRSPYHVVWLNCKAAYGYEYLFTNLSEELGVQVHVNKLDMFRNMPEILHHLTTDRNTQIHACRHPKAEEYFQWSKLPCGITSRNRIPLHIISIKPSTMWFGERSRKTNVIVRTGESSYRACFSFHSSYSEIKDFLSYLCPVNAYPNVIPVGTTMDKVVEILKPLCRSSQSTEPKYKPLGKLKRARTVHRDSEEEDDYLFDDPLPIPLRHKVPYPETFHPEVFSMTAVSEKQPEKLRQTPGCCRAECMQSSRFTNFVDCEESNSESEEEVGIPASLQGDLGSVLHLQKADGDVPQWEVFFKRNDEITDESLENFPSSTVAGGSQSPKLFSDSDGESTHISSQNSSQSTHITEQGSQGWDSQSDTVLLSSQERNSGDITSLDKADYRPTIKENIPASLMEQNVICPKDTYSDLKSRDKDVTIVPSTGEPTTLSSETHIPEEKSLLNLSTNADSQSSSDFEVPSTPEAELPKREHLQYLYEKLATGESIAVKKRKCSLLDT

Molecular target: T1, POT1-FLAG (UniProt Q9NUX5)
T1 sequence: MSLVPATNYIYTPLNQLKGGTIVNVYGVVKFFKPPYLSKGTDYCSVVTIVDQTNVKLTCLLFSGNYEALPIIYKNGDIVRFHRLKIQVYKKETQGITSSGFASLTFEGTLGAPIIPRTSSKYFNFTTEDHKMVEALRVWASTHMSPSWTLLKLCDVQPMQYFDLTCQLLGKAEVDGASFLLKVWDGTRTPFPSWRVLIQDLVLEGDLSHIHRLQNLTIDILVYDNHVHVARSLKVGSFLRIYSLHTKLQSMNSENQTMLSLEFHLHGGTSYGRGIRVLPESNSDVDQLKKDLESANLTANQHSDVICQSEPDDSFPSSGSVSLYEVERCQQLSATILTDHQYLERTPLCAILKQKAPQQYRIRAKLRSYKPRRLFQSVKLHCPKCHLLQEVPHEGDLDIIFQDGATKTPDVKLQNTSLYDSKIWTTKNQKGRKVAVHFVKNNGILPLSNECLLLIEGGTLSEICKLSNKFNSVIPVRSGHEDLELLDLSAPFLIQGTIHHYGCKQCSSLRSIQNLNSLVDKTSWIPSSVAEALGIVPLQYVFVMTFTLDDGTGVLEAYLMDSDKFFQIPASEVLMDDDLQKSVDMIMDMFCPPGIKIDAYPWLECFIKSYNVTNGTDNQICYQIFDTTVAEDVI
Assay: co-IP; 293FT cells co-transfected with POT1-FLAG and Artemis-GFP, X-Ray 6 Gy on day 1 post transfection, harvested at different time points; lysates sonicated, pre-cleared, immunoprecipitated with an antibody against FLAG overnight at 4°C, protein A/G, Western blot

binding: binds
Substance: Artemis-GFP (from UniProt Q96SD1 1-692)
